The test system of this series is 353 kinases. Kind of series: Ambit global kinase profiling, active site-directed competition binding assay, 353 kinases. As to conditions: 10 µM; for number of protein kinases at competition level 51–90% / number of protein kinases at competition level 91–98% / number of protein kinases at competition level 99–100% / share of total kinases tested inhibited at over 50%: 353 kinases; for number of kinases whose binding activity was inhibited at over 50%: out of 353 kinases. Set-up: species or system human.

Consider two compounds from paper PMC3445516 (PLoS ONE, 2012).

For the compound `CC(O)CNc1cc(-c2[nH]c3cccnc3c2-c2ccc(F)cc2)ccn1` (stereo not shown) [Compound 140], the “number of protein kinases at competition level 51–90%” value is 23, the “number of protein kinases at competition level 91–98%” value turned out to be 12, the “number of protein kinases at competition level 99–100%” value came to 8 and the “share of total kinases tested inhibited at over 50%” value is given as 12%. Moreover, the “number of kinases whose binding activity was inhibited at over 50%” value is recorded as 43.
The matching figures for `Fc1ccc(-c2c(-c3ccncc3)[nH]c3nccnc23)cc1` [Compound 122]: 59, 47, 17, 35% and 123.
